Measured values taken from the supplement of paper PMC11006884.
The entries are a selection whose mix differs from that of the whole data set.

Protein sequences, listed by entry. Tags and fused reporters are not part of them. Lines headed by an entry give the natural chain unless they say otherwise; changes in a name come on top.
UniProt Q8WUA2: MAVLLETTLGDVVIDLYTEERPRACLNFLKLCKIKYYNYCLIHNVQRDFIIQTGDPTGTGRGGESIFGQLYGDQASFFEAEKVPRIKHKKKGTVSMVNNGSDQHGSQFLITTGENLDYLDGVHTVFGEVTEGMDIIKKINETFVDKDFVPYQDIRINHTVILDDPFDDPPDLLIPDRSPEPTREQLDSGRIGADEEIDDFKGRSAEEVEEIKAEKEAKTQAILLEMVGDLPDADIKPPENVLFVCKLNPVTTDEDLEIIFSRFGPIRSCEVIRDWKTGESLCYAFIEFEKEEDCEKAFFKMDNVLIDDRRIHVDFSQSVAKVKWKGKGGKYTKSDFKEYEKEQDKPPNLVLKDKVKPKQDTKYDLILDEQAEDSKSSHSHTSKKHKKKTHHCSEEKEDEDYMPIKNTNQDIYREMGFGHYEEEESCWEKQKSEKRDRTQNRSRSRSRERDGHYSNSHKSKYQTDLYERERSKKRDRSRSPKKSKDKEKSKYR
UniProt Q8N1G4: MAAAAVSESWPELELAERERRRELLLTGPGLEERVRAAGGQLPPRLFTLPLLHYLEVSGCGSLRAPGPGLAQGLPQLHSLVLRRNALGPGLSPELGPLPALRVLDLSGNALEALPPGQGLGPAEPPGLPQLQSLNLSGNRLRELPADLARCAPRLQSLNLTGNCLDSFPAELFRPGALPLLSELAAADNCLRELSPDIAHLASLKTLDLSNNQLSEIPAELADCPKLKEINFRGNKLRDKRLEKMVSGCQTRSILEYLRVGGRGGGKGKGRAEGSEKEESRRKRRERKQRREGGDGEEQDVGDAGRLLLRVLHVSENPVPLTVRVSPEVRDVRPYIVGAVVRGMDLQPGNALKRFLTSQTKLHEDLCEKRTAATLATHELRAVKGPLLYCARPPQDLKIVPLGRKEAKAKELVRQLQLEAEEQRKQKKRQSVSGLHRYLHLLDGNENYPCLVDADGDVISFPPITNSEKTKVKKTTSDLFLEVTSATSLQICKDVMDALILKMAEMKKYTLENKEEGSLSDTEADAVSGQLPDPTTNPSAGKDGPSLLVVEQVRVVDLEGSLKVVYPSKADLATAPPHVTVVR
UniProt Q8TBE9: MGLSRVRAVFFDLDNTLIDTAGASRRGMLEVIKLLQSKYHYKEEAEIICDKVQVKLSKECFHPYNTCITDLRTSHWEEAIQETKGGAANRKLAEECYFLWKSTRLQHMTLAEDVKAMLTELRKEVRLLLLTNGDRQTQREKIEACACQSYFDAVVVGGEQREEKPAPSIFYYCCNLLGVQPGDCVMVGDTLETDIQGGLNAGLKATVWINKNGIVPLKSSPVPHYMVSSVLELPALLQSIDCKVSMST
UniProt Q8NEZ3: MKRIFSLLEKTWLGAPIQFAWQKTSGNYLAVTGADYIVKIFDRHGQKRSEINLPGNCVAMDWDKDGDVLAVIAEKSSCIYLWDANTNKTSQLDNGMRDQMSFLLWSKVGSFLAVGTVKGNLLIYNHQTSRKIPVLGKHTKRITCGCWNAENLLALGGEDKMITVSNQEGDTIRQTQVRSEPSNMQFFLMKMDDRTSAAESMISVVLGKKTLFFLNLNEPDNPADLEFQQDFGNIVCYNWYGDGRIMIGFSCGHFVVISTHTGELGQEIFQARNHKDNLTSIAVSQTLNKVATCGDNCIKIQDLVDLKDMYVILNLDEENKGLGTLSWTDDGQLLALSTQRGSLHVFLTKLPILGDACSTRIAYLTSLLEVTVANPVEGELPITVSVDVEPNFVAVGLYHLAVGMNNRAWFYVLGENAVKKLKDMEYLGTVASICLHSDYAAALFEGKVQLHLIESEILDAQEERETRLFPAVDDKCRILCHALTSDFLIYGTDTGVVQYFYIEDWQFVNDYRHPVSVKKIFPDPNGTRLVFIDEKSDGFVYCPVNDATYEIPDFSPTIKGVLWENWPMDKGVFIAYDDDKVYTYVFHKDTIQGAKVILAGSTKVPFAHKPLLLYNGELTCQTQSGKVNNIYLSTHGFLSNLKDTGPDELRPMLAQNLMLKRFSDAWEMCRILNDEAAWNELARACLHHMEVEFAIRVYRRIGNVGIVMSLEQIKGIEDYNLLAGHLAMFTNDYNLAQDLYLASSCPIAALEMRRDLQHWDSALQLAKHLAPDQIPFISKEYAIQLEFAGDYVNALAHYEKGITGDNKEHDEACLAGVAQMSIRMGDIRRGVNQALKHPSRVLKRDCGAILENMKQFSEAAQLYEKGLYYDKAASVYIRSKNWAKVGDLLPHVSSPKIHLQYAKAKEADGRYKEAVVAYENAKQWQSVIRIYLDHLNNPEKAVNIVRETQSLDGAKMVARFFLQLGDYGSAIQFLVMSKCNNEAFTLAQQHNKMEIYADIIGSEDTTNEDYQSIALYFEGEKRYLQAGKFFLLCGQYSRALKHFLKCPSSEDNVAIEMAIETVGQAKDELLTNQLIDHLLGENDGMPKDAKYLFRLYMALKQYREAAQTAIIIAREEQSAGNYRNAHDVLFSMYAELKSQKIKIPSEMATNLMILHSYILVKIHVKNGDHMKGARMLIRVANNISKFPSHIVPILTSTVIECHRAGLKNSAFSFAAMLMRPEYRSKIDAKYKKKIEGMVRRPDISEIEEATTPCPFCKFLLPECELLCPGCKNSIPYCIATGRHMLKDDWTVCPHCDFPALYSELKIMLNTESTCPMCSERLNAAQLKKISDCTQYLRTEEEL
UniProt Q8TEX9: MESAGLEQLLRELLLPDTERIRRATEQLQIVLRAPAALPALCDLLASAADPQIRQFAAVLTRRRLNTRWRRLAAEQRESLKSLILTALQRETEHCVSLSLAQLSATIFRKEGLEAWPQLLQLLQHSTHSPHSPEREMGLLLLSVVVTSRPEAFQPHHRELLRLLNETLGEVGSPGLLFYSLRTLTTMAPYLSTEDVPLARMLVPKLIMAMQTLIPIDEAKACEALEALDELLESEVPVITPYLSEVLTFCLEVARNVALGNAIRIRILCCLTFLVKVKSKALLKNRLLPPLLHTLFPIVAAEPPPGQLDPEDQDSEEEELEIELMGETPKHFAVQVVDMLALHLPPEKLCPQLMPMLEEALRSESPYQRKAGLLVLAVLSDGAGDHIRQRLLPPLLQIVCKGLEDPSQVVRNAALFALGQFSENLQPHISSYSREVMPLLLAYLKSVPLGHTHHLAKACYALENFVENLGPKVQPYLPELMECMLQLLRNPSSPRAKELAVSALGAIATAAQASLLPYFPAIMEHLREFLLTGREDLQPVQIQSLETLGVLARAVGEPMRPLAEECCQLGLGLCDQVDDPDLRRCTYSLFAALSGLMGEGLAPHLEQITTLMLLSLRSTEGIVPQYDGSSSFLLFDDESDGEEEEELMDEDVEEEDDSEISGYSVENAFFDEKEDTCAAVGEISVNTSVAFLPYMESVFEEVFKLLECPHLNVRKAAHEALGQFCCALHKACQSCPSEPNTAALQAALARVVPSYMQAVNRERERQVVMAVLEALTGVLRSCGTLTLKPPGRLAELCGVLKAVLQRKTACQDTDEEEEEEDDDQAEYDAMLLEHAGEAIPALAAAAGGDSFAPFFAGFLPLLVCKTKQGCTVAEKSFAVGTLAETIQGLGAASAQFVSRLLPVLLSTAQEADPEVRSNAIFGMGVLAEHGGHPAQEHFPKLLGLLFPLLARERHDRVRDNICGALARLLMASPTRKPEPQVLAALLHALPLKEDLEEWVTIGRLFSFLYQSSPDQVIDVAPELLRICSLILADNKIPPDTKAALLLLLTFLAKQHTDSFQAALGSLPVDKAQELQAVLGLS
UniProt Q8TAQ2, whole entry: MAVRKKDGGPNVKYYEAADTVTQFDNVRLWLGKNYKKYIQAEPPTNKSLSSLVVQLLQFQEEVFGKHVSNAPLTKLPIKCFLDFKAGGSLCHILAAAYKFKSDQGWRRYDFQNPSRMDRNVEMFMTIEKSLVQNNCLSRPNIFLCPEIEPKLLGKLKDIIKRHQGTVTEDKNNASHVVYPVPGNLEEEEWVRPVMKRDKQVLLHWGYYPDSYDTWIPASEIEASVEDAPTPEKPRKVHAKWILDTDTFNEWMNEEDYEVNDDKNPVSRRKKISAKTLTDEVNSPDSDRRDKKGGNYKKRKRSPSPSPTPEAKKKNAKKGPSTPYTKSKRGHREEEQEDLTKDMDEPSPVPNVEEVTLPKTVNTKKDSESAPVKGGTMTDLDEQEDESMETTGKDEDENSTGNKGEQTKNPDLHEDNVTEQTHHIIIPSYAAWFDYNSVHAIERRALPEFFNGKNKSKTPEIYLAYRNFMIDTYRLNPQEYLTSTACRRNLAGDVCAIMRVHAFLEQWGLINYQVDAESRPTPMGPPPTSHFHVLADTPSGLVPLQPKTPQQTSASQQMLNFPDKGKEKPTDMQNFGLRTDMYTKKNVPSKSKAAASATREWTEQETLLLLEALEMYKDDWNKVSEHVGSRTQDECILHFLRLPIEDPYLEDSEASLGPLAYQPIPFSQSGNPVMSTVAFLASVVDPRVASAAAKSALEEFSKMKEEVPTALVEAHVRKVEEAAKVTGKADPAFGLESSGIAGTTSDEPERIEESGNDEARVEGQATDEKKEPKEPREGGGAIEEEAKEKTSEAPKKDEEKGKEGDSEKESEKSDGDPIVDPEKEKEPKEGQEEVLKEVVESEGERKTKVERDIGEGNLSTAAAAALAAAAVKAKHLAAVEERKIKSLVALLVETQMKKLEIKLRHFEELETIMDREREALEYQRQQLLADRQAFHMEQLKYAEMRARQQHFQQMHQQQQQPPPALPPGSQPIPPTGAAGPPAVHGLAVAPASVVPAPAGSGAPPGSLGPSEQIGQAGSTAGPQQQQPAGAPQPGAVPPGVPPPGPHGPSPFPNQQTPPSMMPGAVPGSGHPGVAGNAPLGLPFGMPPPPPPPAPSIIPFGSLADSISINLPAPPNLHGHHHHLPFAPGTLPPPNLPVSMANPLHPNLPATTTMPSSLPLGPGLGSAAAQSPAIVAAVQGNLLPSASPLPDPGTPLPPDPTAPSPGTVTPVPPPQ
UniProt Q8NBW4: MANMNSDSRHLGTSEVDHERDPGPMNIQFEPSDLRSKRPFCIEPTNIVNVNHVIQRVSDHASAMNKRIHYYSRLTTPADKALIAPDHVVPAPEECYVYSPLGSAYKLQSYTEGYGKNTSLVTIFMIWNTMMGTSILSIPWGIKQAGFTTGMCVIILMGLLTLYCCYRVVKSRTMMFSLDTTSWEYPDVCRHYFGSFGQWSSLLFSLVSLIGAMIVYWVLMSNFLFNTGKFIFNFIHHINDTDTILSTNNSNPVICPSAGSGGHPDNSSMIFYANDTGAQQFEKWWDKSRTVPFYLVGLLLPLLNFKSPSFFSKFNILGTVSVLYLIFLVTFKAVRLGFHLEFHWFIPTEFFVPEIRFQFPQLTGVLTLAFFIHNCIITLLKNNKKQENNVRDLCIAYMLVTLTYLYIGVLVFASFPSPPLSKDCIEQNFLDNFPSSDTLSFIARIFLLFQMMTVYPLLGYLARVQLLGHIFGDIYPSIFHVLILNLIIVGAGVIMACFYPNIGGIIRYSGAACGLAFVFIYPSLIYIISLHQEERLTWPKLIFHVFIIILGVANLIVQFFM
UniProt Q8TDD1, whole entry, looked up: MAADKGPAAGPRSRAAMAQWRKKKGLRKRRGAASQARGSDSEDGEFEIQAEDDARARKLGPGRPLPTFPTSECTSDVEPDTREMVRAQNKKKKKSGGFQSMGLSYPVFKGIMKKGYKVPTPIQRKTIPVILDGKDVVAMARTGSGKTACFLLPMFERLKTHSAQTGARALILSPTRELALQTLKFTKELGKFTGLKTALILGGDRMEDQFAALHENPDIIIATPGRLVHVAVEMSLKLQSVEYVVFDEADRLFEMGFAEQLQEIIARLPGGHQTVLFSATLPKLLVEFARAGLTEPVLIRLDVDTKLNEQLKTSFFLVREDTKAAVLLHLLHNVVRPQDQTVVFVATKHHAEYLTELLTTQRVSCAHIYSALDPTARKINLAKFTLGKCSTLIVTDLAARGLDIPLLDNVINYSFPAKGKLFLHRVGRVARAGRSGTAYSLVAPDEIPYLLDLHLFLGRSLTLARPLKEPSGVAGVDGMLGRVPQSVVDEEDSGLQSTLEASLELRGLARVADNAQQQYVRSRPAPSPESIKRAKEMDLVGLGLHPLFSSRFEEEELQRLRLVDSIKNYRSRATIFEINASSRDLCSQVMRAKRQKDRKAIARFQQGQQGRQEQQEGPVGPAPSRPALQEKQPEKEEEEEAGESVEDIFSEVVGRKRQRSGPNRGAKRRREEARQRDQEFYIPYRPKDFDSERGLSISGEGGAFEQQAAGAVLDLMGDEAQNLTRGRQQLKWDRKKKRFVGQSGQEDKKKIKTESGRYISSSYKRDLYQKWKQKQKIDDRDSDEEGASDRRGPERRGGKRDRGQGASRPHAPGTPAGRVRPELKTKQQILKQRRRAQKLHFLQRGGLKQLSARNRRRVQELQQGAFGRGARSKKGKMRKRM

compound: COC(=O)C#Cc1ccccc1 [methyl 3-phenylpropiolate]; assay: log2 ratio of iodoacetamide-alkyne labeling of the cysteine site, DMSO over compound (competition); higher = stronger covalent engagement of the cysteine by the compound, active = 1 or more; conditions: 500 µM; treatment time 1 h; system: HEK293T cell lysate
How it was run: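 Reporter intensities give each cysteine's log2 competition ratio as the mean of control channels over the mean of compound channels. The samples were HEK293T lysate (2 mg/mL) given vehicle or electrophile (500 µM, 1 h, ambient temperature), then iodoacetamide alkyne (1 h), followed by click coupling to sCIP-TMT reagents, pooling, trypsin digestion overnight at 37 °C, streptavidin enrichment, acid elution, Orbitrap Eclipse LC-MS/MS with FAIMS and FragPipe quantification. Duplicate channels and three replicates were run, and cysteines quantified in only one replicate were discarded.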

Row | Target | log2 ratio of iodoacetamide-alkyne labeling
1 | SYNE2 C5348 (UniProt Q8WXH0) | inactive: 0.0109
2 | UniProt Q8NFC6_C1170 | inactive: 0.273
3 | GPT2 C477 (UniProt Q8TD30) | inactive: 0.287
4 | PPIL4 C426 (UniProt Q8WUA2) | inactive: 0.487
5 | LRRC47 C190 (UniProt Q8N1G4) | inactive: 0.324
6 | PIAS4 C164 (UniProt Q8N2W9) | inactive: 0.358
7 | NANP C242 (UniProt Q8TBE9) | inactive: 0.241
8 | UniProt Q8TDB4_C139 | inactive: 0.481
9 | WDR19 C1332 (UniProt Q8NEZ3) | inactive: 0.441
10 | UniProt Q8NB37_C94 | inactive: 0.273
11 | PPIL4 C245 (UniProt Q8WUA2) | inactive: 0.169
12 | DYNC2H1 C3975 (UniProt Q8NCM8) | inactive: 0.133
13 | IPO4 C42 (UniProt Q8TEX9) | inactive: -0.0119
14 | GDPD1 C107 (UniProt Q8N9F7) | inactive: 0.0424
15 | THOC2 C773 (UniProt Q8NI27) | inactive: 0.0974
16 | UniProt Q8N0W3_C484 | inactive: 0.269
17 | RNF214 C655 (UniProt Q8ND24) | inactive: 0.558
18 | SMARCC2 C145 (UniProt Q8TAQ2) | inactive: 0.428
19 | Q8V1_C158 | inactive: 0.576
20 | SLC38A9 C41 (UniProt Q8NBW4) | inactive: 0.142
21 | UniProt Q8WXK3_C9 | inactive: 0.0974
22 | DDX54 C389 (UniProt Q8TDD1) | inactive: 0.101
23 | ZNF280C C94 (UniProt Q8ND82) | inactive: 0.666

Part of the list above, as a markdown table:

| Row | Target | log2 ratio of iodoacetamide-alkyne labeling |
| --- | --- | --- |
| 8 | UniProt Q8TDB4_C139 | inactive: 0.481 |
| 9 | WDR19 C1332 (UniProt Q8NEZ3) | inactive: 0.441 |
| 10 | UniProt Q8NB37_C94 | inactive: 0.273 |
| 11 | PPIL4 C245 (UniProt Q8WUA2) | inactive: 0.169 |
| 12 | DYNC2H1 C3975 (UniProt Q8NCM8) | inactive: 0.133 |
